Results taken from patent US20240287501A1.
These are yes or no findings as the source states them, for the method shown. Binding seen in cells or lysates may run through a third protein. Some entries that bind do so weakly or less than the wild type. Tags and fused reporters may be left off the sequences shown.

Experiments:
[1] = target: T1, FBA1 (native, from EBY100 lysate) (Saccharomyces cerevisiae) (UniProt P14540); test: co-immunoprecipitation, Nb coupled to NHS-agarose beads, EBY100 yeast lysate (native target), SDS-PAGE
T1 sequence (looked up): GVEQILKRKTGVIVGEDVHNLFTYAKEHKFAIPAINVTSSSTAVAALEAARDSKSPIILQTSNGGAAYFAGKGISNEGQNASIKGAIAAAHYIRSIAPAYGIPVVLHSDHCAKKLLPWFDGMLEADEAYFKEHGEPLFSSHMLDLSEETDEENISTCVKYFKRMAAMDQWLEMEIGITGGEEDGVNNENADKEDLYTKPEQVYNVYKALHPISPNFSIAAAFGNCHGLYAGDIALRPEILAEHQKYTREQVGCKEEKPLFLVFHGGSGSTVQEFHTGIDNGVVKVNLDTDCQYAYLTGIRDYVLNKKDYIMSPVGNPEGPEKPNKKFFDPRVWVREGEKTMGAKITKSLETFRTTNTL

[2] = target: T2, GFP-tagged FBA1 (Saccharomyces cerevisiae) (UniProt P14540); test: co-immunoprecipitation, Nb coupled to NHS-agarose beads, lysate of the yeast strain expressing the GFP-tagged target, SDS-PAGE
T2 sequence (looked up): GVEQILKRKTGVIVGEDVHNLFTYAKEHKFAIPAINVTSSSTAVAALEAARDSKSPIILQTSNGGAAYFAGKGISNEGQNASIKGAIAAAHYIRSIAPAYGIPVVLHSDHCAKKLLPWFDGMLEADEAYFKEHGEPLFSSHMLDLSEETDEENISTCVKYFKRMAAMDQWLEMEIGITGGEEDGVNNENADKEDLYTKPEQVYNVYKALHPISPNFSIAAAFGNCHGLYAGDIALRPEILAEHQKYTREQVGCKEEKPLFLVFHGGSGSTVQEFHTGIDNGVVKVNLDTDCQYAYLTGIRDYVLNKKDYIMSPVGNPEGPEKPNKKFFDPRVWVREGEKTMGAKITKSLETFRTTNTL

[3] = target: T2, GFP-tagged FBA1 (Saccharomyces cerevisiae); test: co-immunoprecipitation, Nb coupled to NHS-agarose beads, lysate of the yeast strain expressing the GFP-tagged target, Western blot anti-GFP

Measured: binding

B1: CA17443 (VHH)
VHH: QVQLVESGGGSVQPGGSLRLSCAASGNILRIYSMGWSRQAPGKQRELVASITRAGSTRYADSVKGRFTISRDSTNNMVYLQMNSLEPEDTAVYFCNANPVYDGSAGYWGQGTQVTVSS
binds: all assays above
